These are yes or no findings as the source states them, for the method shown. Binding seen in cells or lysates may run through a third protein. These calls come from enrichment with a bait or labelling near it, and not all partners need be listed.

The chains behind the UniProt entries cited, without tags or fusion partners.
UniProt Q86U86: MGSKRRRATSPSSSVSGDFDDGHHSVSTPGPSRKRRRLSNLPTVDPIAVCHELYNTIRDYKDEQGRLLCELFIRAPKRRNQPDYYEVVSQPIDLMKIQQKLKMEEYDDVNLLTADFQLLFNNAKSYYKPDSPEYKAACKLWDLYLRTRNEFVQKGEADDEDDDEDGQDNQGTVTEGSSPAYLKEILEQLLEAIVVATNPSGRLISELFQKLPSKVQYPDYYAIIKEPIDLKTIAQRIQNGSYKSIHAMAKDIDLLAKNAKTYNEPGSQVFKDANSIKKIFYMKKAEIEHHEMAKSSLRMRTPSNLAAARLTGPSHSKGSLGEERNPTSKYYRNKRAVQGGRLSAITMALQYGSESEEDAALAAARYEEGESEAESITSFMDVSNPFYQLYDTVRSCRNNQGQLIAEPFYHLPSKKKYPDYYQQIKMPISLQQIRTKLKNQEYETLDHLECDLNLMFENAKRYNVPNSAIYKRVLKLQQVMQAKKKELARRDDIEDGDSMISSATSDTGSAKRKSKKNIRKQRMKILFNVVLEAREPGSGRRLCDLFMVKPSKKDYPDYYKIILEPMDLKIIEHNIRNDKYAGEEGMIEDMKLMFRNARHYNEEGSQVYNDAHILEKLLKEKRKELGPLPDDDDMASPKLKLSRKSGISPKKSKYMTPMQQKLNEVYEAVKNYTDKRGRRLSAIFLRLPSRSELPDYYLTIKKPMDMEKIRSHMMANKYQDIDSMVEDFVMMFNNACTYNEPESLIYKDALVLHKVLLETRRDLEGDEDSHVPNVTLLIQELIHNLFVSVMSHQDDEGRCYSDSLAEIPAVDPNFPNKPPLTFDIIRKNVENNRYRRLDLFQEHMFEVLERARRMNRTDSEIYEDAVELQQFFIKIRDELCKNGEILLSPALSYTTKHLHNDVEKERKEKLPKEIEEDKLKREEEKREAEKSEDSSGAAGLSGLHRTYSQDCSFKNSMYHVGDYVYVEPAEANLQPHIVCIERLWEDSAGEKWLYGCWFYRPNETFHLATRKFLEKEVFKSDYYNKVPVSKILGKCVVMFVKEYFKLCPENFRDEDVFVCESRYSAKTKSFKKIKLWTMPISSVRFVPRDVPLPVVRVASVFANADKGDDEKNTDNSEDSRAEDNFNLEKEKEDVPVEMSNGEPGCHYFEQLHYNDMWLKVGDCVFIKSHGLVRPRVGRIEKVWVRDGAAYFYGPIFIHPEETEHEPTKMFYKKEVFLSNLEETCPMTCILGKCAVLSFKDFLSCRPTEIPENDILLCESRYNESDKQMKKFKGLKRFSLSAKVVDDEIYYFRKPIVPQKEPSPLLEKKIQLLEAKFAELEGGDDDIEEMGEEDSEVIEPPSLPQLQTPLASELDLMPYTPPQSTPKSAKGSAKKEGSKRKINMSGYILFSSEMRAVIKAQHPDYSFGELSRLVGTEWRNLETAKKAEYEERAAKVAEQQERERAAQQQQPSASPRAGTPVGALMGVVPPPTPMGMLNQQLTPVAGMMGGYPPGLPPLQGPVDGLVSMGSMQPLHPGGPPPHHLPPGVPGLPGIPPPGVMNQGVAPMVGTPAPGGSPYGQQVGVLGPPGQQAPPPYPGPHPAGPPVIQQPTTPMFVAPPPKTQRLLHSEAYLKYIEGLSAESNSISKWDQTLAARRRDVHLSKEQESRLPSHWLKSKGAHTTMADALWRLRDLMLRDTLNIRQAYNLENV
UniProt Q12834: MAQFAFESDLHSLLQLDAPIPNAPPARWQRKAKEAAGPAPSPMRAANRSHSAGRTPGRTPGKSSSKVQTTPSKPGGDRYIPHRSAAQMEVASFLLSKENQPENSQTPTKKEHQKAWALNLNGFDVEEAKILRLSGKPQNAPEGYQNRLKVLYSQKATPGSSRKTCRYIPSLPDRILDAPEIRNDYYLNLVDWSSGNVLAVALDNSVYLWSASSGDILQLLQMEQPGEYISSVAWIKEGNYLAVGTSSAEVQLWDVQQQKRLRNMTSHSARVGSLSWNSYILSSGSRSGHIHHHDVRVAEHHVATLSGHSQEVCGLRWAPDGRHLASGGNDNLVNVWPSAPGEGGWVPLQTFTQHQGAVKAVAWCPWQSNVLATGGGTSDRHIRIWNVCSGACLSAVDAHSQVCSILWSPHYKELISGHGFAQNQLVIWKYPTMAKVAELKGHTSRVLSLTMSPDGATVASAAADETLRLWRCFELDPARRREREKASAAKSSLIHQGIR

The text below walks through data of article PMC11791976, “CDC20‐Mediated Selective Autophagy Degradation of PBRM1 Affects Immunotherapy for Renal Cell Carcinoma” (Advanced Science, 2024).

For this assay, the target named is Flag-tagged PBRM1 (Polybromo 1), pcDNA3.1-PBRM1-3xFlag (UniProt Q86U86). The experiment in a line: affinity purification with mass spectrometry; anti-Flag immunoprecipitates of 293T cells transfected with Flag-tagged PBRM1, LC-MS/MS.

As for “CDC20 (cell division cycle 20 homologue), endogenous (from UniProt Q12834 1-499)”, the binding entry was “binds”.
